Consider 4 compounds from patent US10758467B2, “Highly substantive water-soluble UV absorbers and process for preparation thereof” (GALAXY SURFACTANTS LTD., priority 2018, dated 2020).

This data set in a line: Substantivity to hair through rinse-off conditioner formulation (deposition on hair, re-extracted and quantified by UV spectroscopy). The note with it: for Relative Substantivity: rinse-off conditioner with equimolar quantities (0.0015 gmoles) of UV absorber, 1.5 g hair tress, extracted by hot ethanol, UV spectroscopy; for deposition on hair: rinse-off conditioner, UV spectroscopic analysis.

In the case of `CCCCCCCCCCCCCCCCCC[N+](C)(C)CC(O)C[N+](C)(C)CCCNC(=O)/C=C/c1ccc(OC)cc1` (stereo not shown) [Example 4, p-methoxy cinnamidopropyl (2-hydroxypropyl stearyl dimethyl ammonium chloride) dimonium chloride], the “Relative Substantivity” value is 1.50 Mg/1.5 g of hair and the deposition on hair is 1.5 mg/1.5 g of hair.

Regarding `COc1ccc(C=CC(=O)NCCC[N+](C)(C)C)cc1.[Cl-]` [Example 6, p-methoxy cinnamidopropyl trimethyl ammonium chloride], the “Relative Substantivity” value is 0.65 Mg/1.5 g of hair and the deposition on hair is recorded as 0.65 mg/1.5 g of hair.

Turning to `C[N+](C)(C)CCCNC(=O)/C=C/c1ccccc1` [Incroquat UV 283, cinnamidopropyl trimethyl ammonium chloride, reference compound], the “Relative Substantivity” value was 0.6 Mg/1.5 g of hair and the deposition on hair is 0.65 mg/1.5 g of hair.

Consider `COc1ccc(/C=C/C(=O)NCCC[N+](C)(C)CC(O)CS(=O)(=O)[O-])cc1` (stereo not shown) [Galaxy SunBeat, 3-(N-p-methoxycinnamidopropyl-N,N-dimethylammonium)-2-hydroxypropane-1-sulphonate, reference compound], for which the “Relative Substantivity” value was 0.75 Mg/1.5 g of hair.
